The series addresses T1, CYP2B6 (Homo sapiens, UniProt P20813).
T1 sequence (P20813 1-491): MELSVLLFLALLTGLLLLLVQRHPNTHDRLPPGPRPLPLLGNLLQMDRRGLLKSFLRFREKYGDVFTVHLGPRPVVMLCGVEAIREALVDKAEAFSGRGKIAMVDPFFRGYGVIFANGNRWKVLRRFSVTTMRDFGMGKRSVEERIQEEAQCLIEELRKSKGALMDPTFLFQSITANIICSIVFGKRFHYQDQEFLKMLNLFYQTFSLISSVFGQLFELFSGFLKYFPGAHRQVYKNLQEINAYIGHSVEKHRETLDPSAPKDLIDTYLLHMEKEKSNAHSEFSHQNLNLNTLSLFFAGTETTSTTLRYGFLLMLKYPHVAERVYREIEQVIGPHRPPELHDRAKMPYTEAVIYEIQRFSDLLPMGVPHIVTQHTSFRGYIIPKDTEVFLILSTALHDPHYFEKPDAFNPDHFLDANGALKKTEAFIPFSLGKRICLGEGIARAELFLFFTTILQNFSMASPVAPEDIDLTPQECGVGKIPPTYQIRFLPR
Put plainly: in vitro. Conditions: recombinant enzyme, Supersome.

One may read the inhibition as the share of the control response that was lost under treatment. On to `Cc1ccccc1C(OCCN(C)C)c1ccccc1` (centres unmarked) [Orphenadrine, orphenadrine], for which the inhibition at 15 min, 100 µM is 44.9% (% Inhibition of (R)-EDDP production) and 43% (% Inhibition of (S)-EDDP production).

Values taken from article PMC3005981 (Basic & clinical pharmacology & toxicology, 2010).
